Measured data: PubChem BioAssay AID504793 (Drosophila RNAi Screening Center, 2011)
The screen tested about 23,000 reagents; this is a random part of those with a known target gene and a result. In the full data, 62 (0.27%) got an active call. 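Calls come from follow-up tests whose scores are not deposited, so confirmed genes may have low counts here; counts are not normalised per plate.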 Raw values are not corrected between plates. Names joined by + are all predicted targets of the reagent.

- Assay: 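Genes required for cells to halt at G2/M after double-strand DNA breaks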 (primary screen)
- System: Drosophila S2R+ cells
- Reagents: long dsRNA against Drosophila genes, about 0.25 µg dsRNA per well
- Duration: 4 days of dsRNA, then 4 hours of drug before read-out
- Challenge: doxorubicin 0.5 µM for 4 hours to cause double-strand breaks, in cells also given a low, harmless dose of dsRNA against nbs to sensitise the assay
- Read-out: 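Per-well count of mitotic cells stained for phospho-histone H3 after doxorubicin exposure, used as mitotic index; counts are raw and not normalised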
- Reading the numbers: mitotic cells: higher = more cells in mitosis, weaker G2 arrest
- Call rule: 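a call needs confirmation in secondary tests, with other dsRNAs and a check of mitotic timing without damage, not just a high primary count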
- Calls: active = confirmed in follow-up tests; inactive = not confirmed

target	PubChem SID	mitotic cells, replicate 1	Outcome
CG14006	SID104182130	2	inactive
Grx1	SID104190519	5	inactive
CG32305	SID104188406	3	inactive
CG32305	SID104208398	10	inactive
CG34461	SID104190559	3	inactive
CG1998	SID104199621	9	inactive
rols	SID104189665	6	inactive
rols	SID104190046	2	inactive
rols	SID104190328	6	inactive
CG34260 + cmpy	SID104191493	6	inactive
CG13926	SID104188187	7	inactive
NijA	SID104190429	10	inactive
so	SID104202453	6	inactive
sNPF-R	SID104190628	7	inactive
Drp1	SID104180366	11	inactive
Drp1	SID104204957	2	inactive
Atg10	SID104185964	6	inactive
key	SID104184077	2	inactive
Cds	SID104190730	5	inactive
CG3631	SID104195295	7	inactive
CG3631	SID104208312	9	inactive
Vps36	SID104189577	6	inactive
l(3)80Fg	SID104201337	16	inactive
l(3)80Fg	SID104201717	9	inactive
CG7551	SID104190668	4	inactive
lncRNA:sphinx + ATPsynF	SID104196983	5	inactive
Pof	SID104184197	3	inactive
CG9521	SID104199988	8	inactive
Dora	SID104199406	4	inactive
Dora	SID104199573	5	inactive
Dora	SID104199826	10	inactive
Dora	SID104199827	1	inactive
Dora	SID104205599	6	inactive
Dora	SID104206972	2	inactive
jim	SID104191681	5	inactive
jim	SID104202907	6	inactive
CG13654	SID104194446		inactive
CG10469	SID104189521	5	inactive
CG10469	SID104204188	12	inactive
Inx6	SID104200371	12	inactive
Inx6	SID104204843	9	inactive
slam	SID104183032	4	inactive
Or85b	SID104196557	9	inactive
lncRNA:CR41601	SID104201705	7	inactive
Rtnl1	SID104180643	8	inactive
Rtnl1	SID104182476	8	inactive
Rtnl1	SID104182914	8	inactive
Rtnl1	SID104201377	5	inactive
